# Results from PubChem BioAssay AID587 (National Center for Advancing Translational Sciences (NCATS), 2007).
# “And” between values parts separate entries of the source, which are not always exact repeats. Equal entries are not always repeated. In all, about 59,000 compounds went through this assay and about 35 (0.06%) were called active. This list was built around the results that the source calls inconclusive (neither active nor inactive); the mix of calls is not that of the screen. No stated cut-off is given here; in the data, active means max dye-equivalent concentration above about 10 nM; inconclusive means between about 1.1 nM and that limit; inactive means weaker than that.
# Experiment: qHTS Assay for Spectroscopic Profiling in Texas Red Spectral Region
# Details: Compound fluorescence, Texas Red channel, 547/618 nm; hits give high values
# Procedure, shortened: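 Fluorescence at ex 547/em 618 nm, normalized against an on-plate Texas Red standard series to give dye-equivalent concentration per compound concentration. Buffer 100 mM Tris, pH 8.0; 15 min RT incubation before CCD imaging.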
row,Compound,max dye-equivalent concentration
1,CCOC(=O)CSc1nnc2n1C(C)(C)Cc1ccccc1-2,inconclusive: 1.3e-09 M
2,CCCc1nc(SCC(=O)Nc2cc(C)on2)c2ccccc2n1,inconclusive: 1.8e-09 M
3,COc1ccccc1NC(=O)COC(=O)CNC(=O)c1ccc(OC)c(OC)c1,inconclusive: 1.3e-09 M
4,CCOc1ccccc1-n1c(SCC(=O)N(CC)CC)nnc1-c1ccccn1,inconclusive: 1.4e-09 M
5,Cn1c(N2CCCC2)nc2c1c(=O)n(Cc1ccc(Cl)cc1)c(=O)n2C,inconclusive: 1.6e-09 M
6,COc1nc(-c2ccccc2)ccc1-c1noc(C)n1,inconclusive: 2.6e-09 M
7,CC(=O)Nc1ccc(C2(O)COc3ccccc3O2)cc1 (centres undefined),inconclusive: 1.3e-09 M
8,CC(C)(C)c1[nH]nc2c1C(c1ccc(OC(=O)c3ccco3)cc1)C(C#N)=C(N)O2 (centres undefined),inconclusive: 1.3e-09 M
9,O=C(CCCCCn1c(SCc2ccncc2)nc2ccccc2c1=O)NCc1ccco1,inconclusive: 1.5e-09 M
10,COc1ccc(OC)c(CN2CCCC(C(=O)N3CCCCC3)C2)c1 (centres undefined),inconclusive: 1.1e-09 M
11,COc1ccc(CCNC(=O)CSc2nc(-c3ccco3)cc(C(F)(F)F)n2)cc1OC,inconclusive: 1.5e-09 M
12,CCn1c(=O)c2c(nc(SCc3ccccn3)n2C)n(C)c1=O,inconclusive: 1.2e-09 M
13,O=C(CSc1nc(-c2ccccc2)cs1)NC(=O)NCc1ccco1,inconclusive: 1.3e-09 M
14,CC(C)c1nc2oc3c(NCc4ccccn4)ncnc3c2c2c1COC(C)(C)C2,inconclusive: 1.5e-09 M
15,COc1ccc(C)cc1-n1nnnc1SCn1nnc2ccccc2c1=O,inconclusive: 1.5e-09 M
16,O=C(OCC(CO)OC(CO)n1ccc(=O)[nH]c1=O)c1ccccc1 (centres undefined),inconclusive: 1.2e-09 M
17,COc1ccccc1OCCC(=O)OCC(=O)NC(=O)NC(C)(C)C,inconclusive: 2.2e-09 M
18,COc1cccc(C(=O)Nc2ccccc2N2CCOCC2)c1,inconclusive: 1.1e-09 M
19,COc1ccccc1C(=O)Nc1ccccc1N1CCN(S(C)(=O)=O)CC1,inconclusive: 1.1e-09 M
20,CCNc1ncc2nc(CCc3ccccc3)c(=O)n(C)c2n1,inactive
21,CC(C)NC(=O)CN(c1cccc(Br)c1)S(C)(=O)=O,inconclusive: 1.9e-09 M

row,Compound,max dye-equivalent concentration
1,CC(C)c1nnc(NC(=O)CCC(=O)Nc2ccc(F)cc2)s1,inconclusive: 1.3e-09 M
2,CCOC(=O)c1ccc(NC(=O)N2CC(C)OC(C)C2)cc1 (centres undefined),inconclusive: 1.6e-09 M
3,CC12CCC(C(=O)Nc3cccnc3)(CC1=O)C2(C)C (centres undefined),inconclusive: 1.4e-09 M
4,Clc1cccc(-c2cc3nc4c(c(N5CCOCC5)n3n2)CCCC4)c1,inconclusive: 2.4e-09 M
5,O=C(CN1CCN(c2ncccn2)CC1)N(Cc1ccccc1)c1ccc(F)cc1,inconclusive: 1.1e-09 M
6,Cc1ccc(S(=O)(=O)NC(C)C(=O)Nc2ccccc2C(=O)N2CCCC2)cc1 (centres undefined),inconclusive: 1.2e-09 M
7,O=C(c1ccccc1-c1ccccc1)N1CCCC1,inconclusive: 1.1e-09 M
8,CCC(=O)Nc1cc2nn(-c3ccccc3)nc2cc1Cl,inconclusive: 1.3e-09 M
9,Cc1cc(NC(=O)C2CCN(S(=O)(=O)Cc3ccccc3)CC2)ccc1-n1cnnn1,inconclusive: 1.1e-09 M
10,N=c1c2c3c(sc2ncn1CCN1CCOCC1)CCCCC3,inconclusive: 1.1e-09 M
11,CSc1nnc(-c2ccc(NC(=O)CCc3ccccc3)cc2)n1C,inconclusive: 1.4e-09 M
12,CCC(=O)Nc1ccc2nc(C3CC3)n(Cc3ccccc3)c(=O)c2c1,inconclusive: 1.7e-09 M
13,Cc1nc(SCC(=O)O)c2oc3ccccc3c2n1,inconclusive: 1.1e-09 M
14,CCNc1ncc2nc(-c3ccc(OC)cc3)c(=O)n(-c3ccc(OC)cc3)c2n1,inactive
15,c1cncc(-c2cncnc2NC2CCNCC2)c1,inactive
16,CCN1CCCC1CNc1ncnc2c1[nH]c1ccc(F)cc12 (centres undefined),inconclusive: 1.5e-09 M
17,O=C(CCc1ccc(O)cc1)c1c(O)cc(O)cc1O[C@@H]1O[C@@H](CO)[C@@H](O)[C@@H](O)[C@H]1O,inactive
18,COc1ccccc1-c1cc(C(=O)NCc2ccco2)no1,inconclusive: 1.1e-09 M
19,COc1ccc2c(c1)CCc1c(C(=O)NCc3cccnc3)noc1-2,inconclusive: 1.1e-09 M
20,Cc1cccc(N2CCN(C(=O)c3ccc(N4CCCC4=O)cc3)CC2C)c1 (centres undefined),inconclusive: 1.3e-09 M
21,CN(C)c1nc(OCCNC(=O)COc2ccc(Cl)cc2Cl)nc(N2CCOCC2)n1,inconclusive: 1.4e-09 M

row,Compound,max dye-equivalent concentration
1,O=C(NCc1ccco1)c1cc2n(n1)C(C(F)(F)F)CC(c1ccc(Br)cc1)N2 (centres undefined),inconclusive: 1.5e-09 M
2,Cc1cc(C)c2nc(C(F)(F)F)nc(NCCCN3CCCC3=O)c2c1,inconclusive: 1.2e-09 M
3,COc1ccc(CCNC(=O)c2noc3c2CCCC3)cc1OC,inconclusive: 1.2e-09 M
4,Nc1cc(-c2nn[nH]n2)ccc1F,inconclusive: 1.6e-09 M
5,CO[C@@H]1/C=C\O[C@]2(C)Oc3c(C)c(O)c4c(O)c(c(/C=N\N5CCN(C)CC5)c(O)c4c3C2=O)NC(=O)/C(C)=C\C=C/[C@H](C)[C@H](O)[C@H](C)[C@H](O)[C@H](C)[C@H](OC(C)=O)[C@@H]1C,inactive
6,Cc1c(Cl)c(S(N)(=O)=O)cc2c1=NC=NS=2(=O)O,inconclusive: 1.1e-09 M
7,Cc1occc1C(=O)NC(C)C(C)(C)C (centres undefined),inconclusive: 1.1e-09 M
8,NC(=O)CCCCC(=O)OCCCc1cccs1,inconclusive: 1.1e-09 M
9,COC(=O)c1[nH]c2ccc(C)cc2c1NC(=O)CN1CCN(c2ccc(F)cc2)CC1,inconclusive: 1.2e-09 M
10,CCCCn1c(SCC(=O)NC(C)(C)C)nnc1-c1ccco1,inconclusive: 1.4e-09 M
11,COc1ccc(Cl)cc1C(=O)NCC(c1ccco1)N1CCCC1 (centres undefined),inconclusive: 1.1e-09 M
12,O=C(Nn1cnnc1)c1cc2c(s1)CCCCC2,inconclusive: 1.7e-09 M
13,CN(C)S(=O)(=O)Nc1ccccc1C(N)=O,inconclusive: 1.6e-09 M
14,CC(C)(C)c1cc(CNC2CS(=O)(=O)C[C@@H]2O)cc(C(C)(C)C)c1O (some centres undefined),inconclusive: 3.1e-09 M
15,Cc1cnc(-c2nnc(N(C)C(=O)c3ccncc3)s2)cn1,inconclusive: 1.5e-09 M
16,CCOC(=O)c1cc2sccc2n1CC(=O)OC(C)C,inconclusive: 1.5e-09 M
17,O=C(O)CS(=O)c1ccc2c3c(cccc13)C(=O)c1ccccc1-2 (centres undefined),inactive
18,CN1CCN(c2ncc3nc(-c4ccc(Cl)cc4)c(=O)n(Cc4ccc(F)cc4)c3n2)CC1,inconclusive: 1.3e-09 M
19,COc1nc(OC)nc(N2CCC(NC(=O)C(Cc3ccc(C(C)C)cc3)NC(C)=O)CC2)n1 (centres undefined),inconclusive: 2.8e-09 M
20,Cc1ccc(/C(O)=C2/C(=O)C(=O)N(CCN3CCOCC3)C2c2ccccn2)cc1 (centres undefined),inconclusive: 1.7e-09 M
21,COc1ccccc1CNc1ccc(N2CCCCC2)cc1,inconclusive: 2.7e-09 M

# In the list so far, these contain a COOH group:
row,Compound,max dye-equivalent concentration
13,Cc1nc(SCC(=O)O)c2oc3ccccc3c2n1,inconclusive: 1.1e-09 M
17,O=C(O)CS(=O)c1ccc2c3c(cccc13)C(=O)c1ccccc1-2 (centres undefined),inactive

# (listing goes on)

row,Compound,max dye-equivalent concentration
1,O=S(=O)(NCCc1ccccc1F)c1cccc(S(=O)(=O)N2CCOCC2)c1,inconclusive: 1.3e-09 M
2,CC(=Nc1ccc(O)cc1)c1sc2ccccc2c1O,inconclusive: 1.3e-09 M
3,O=C(CCn1nnc2ccccc21)Nc1nnc(Cc2ccc(F)cc2)s1,inconclusive: 2e-09 M
4,O=C(Nc1ccccc1)NC1(C(=O)N2CCN(C(=O)c3ccco3)CC2)CCCCC1,inconclusive: 2.5e-09 M
5,COc1cc2cc3c(N)c(C(=O)NCc4ccco4)sc3nc2cc1OC,inconclusive: 1.2e-09 M
6,Cc1cccc(N2C(=O)CC(Sc3nc(C)c4c(n3)CCCC4)C2=O)c1 (centres undefined),inconclusive: 1.1e-09 M
7,COc1ccc2nc(NC3=NCN(CC4CCCO4)CN3)nc(C)c2c1 (centres undefined),inactive
8,COC(=O)c1ccc(CN(c2ccc(C)cc2)S(=O)(=O)c2ccc3c(c2)OCCO3)o1,inconclusive: 2e-09 M
9,O=C(NCCCN1CCN(c2ccc(F)cc2)CC1)c1cccc(N2CCCC2=O)c1,inconclusive: 1.7e-09 M
10,CC1=C(\C=C/C(C)=C/C=C\C(C)=C\C(=O)O)C(C)(C)CCC1,inconclusive: 1.6e-09 M and inconclusive: 1.3e-09 M and inconclusive: 1.2e-09 M
11,O=C(c1noc2c1CCCC2)N1CCOCC1,inconclusive: 1.7e-09 M
12,Cc1cc(N2C(=O)C(=O)/C(=C(/O)c3ccc(Cl)cc3)C2c2cccc(Br)c2)no1 (centres undefined),inactive
13,CN1CCN(C(c2cccc(C(F)(F)F)c2)c2nnnn2Cc2ccccc2)CC1 (centres undefined),inconclusive: 3.1e-09 M
14,CC(C)Sc1nnc(Nc2ccccc2)s1,inconclusive: 1.1e-09 M
15,COc1ccc(-c2cc(C(F)(F)F)nc(SCC(=O)NCc3ccco3)n2)cc1OC,inconclusive: 1.7e-09 M
16,Cc1cc(C)cc(N(CC(=O)NCc2cccnc2)S(C)(=O)=O)c1,inconclusive: 1.4e-09 M
17,CC1CCCN(S(=O)(=O)c2ccc(S(=O)(=O)N3CCCN(Cc4ccccc4)C3)cc2)C1 (centres undefined),inconclusive: 2.1e-09 M
18,O=C(COc1ccccc1)N1CCc2ccccc2C1,inconclusive: 2e-09 M
19,N#Cc1nc(-c2cccs2)oc1N1CCN(Cc2ccccc2)CC1,inconclusive: 1.4e-09 M
20,Cc1ccc(-c2cc(C(=O)Nc3cc(C)ccc3C)[nH]n2)c(O)c1,inconclusive: 1.1e-09 M
21,CCOc1ccc(C2C=C(c3ccc(F)cc3)Nc3ncnn32)cc1 (centres undefined),inconclusive: 1.4e-09 M

# In the list so far, these have an aryl thioether with sulfur outside any ring:
row,Compound,max dye-equivalent concentration
1,CCOC(=O)CSc1nnc2n1C(C)(C)Cc1ccccc1-2,inconclusive: 1.3e-09 M
2,CCCc1nc(SCC(=O)Nc2cc(C)on2)c2ccccc2n1,inconclusive: 1.8e-09 M
4,CCOc1ccccc1-n1c(SCC(=O)N(CC)CC)nnc1-c1ccccn1,inconclusive: 1.4e-09 M
9,O=C(CCCCCn1c(SCc2ccncc2)nc2ccccc2c1=O)NCc1ccco1,inconclusive: 1.5e-09 M
11,COc1ccc(CCNC(=O)CSc2nc(-c3ccco3)cc(C(F)(F)F)n2)cc1OC,inconclusive: 1.5e-09 M
12,CCn1c(=O)c2c(nc(SCc3ccccn3)n2C)n(C)c1=O,inconclusive: 1.2e-09 M
13,O=C(CSc1nc(-c2ccccc2)cs1)NC(=O)NCc1ccco1,inconclusive: 1.3e-09 M
15,COc1ccc(C)cc1-n1nnnc1SCn1nnc2ccccc2c1=O,inconclusive: 1.5e-09 M
11,CSc1nnc(-c2ccc(NC(=O)CCc3ccccc3)cc2)n1C,inconclusive: 1.4e-09 M
13,Cc1nc(SCC(=O)O)c2oc3ccccc3c2n1,inconclusive: 1.1e-09 M
10,CCCCn1c(SCC(=O)NC(C)(C)C)nnc1-c1ccco1,inconclusive: 1.4e-09 M
6,Cc1cccc(N2C(=O)CC(Sc3nc(C)c4c(n3)CCCC4)C2=O)c1 (centres undefined),inconclusive: 1.1e-09 M
14,CC(C)Sc1nnc(Nc2ccccc2)s1,inconclusive: 1.1e-09 M
15,COc1ccc(-c2cc(C(F)(F)F)nc(SCC(=O)NCc3ccco3)n2)cc1OC,inconclusive: 1.7e-09 M
